Assay results as given in publication PMC2291563, “SAM Domain-Based Protein Oligomerization Observed by Live-Cell Fluorescence Fluctuation Spectroscopy” (PLoS ONE, 2008).
Substitutions are numbered along the chain they refer to. Numbers in names are those of the source. These are yes or no findings as the source states them, for the method shown. Some binding calls cover weakened binding; strength is not graded here. For part of these data: Where a sequence is shown, tags or fusion partners need not be part of it. One block for each binder: values may come before it.

Tests used:
[1] = biological target: Ste50-mCherry (budding yeast (S288C background)) (UniProt P25344); test: two-dimensional photon counting histogram (2dPCH); live yeast cells with Ste11-GFP and Ste50-mCherry, cytosolic pool; 50 µs bins; two-component fit; cycling cells, also after α-factor or NaCl
[2] = biological target: Ste50^L73A-L75A-GFP (budding yeast (S288C background)) (UniProt P25344); test: photon counting histogram (1dPCH); live yeast cells, cytosolic pool; 488 nm, 50 µs bins; average brightness compared with GFP, GFP-GFP and GFP-GFP-GFP controls; cycling cells, also after α-factor or NaCl
[3] = biological target: Ste50^L73A-L75A-mCherry (budding yeast (S288C background)) (UniProt P25344); test: two-dimensional photon counting histogram (2dPCH); live ste50Δ yeast cells with Ste11-GFP and Ste50^L73A-L75A-mCherry as the only Ste50, cytosolic pool; 50 µs bins; two-species fit

binding [1]: binds
B1: Ste50-GFP (natural protein, budding yeast (S288C background), UniProt P25344 1-346, looked up)
chain: MEDGKQAINEGSNDASPDLDVNGTILMNNEDFSQWSVDDVITWCISTLEVEETDPLCQRLRENDIVGDLLPELCLQDCQDLCDGDLNKAIKFKILINKMRDSKLEWKDDKTQEDMITVLKNLYTTTSAKLQEFQSQYTRLRMDVLDVMKTSSSSSPINTHGVSTTVPSSNNTIIPSSDGVSLSQTDYFDTVHNRQSPSRRESPVTVFRQPSLSHSKSLHKDSKNKVPQISTNQSHPSAVSTANTPGPSPNEALKQLRASKEDSCERILKNAMKRHNLADQDWRQYVLVICYGDQERLLELNEKPVIIFKNLKQQGLHPAIMLRRRGDFEEVAMMNGSDNVTPGGRL
notes: Ste50, SAM domain protein, budding yeast; tagged at the chromosomal locus; source: expressed from its chromosomal locus in live yeast cells (S288C background); not shown: GFP, C-terminal, kept

binding [2]: no binding
B2: Ste50^L73A-L75A-GFP (protein, UniProt P25344 1-346)
chain: B1 chain with L73A, L75A

binding [3]: no binding
B3: Ste50^L73A-L75A-mCherry (protein, UniProt P25344 1-346)
chain: B1 chain with L73A, L75A
